Publication doi:10.1101/2023.02.28.530536
Results are given in words; binding and its absence hold for the method and conditions named. Binding seen in cells or lysates may run through a third protein. Some entries that bind do so weakly or less than the wild type. Where a sequence is shown, tags or fusion partners need not be part of it.

Sequences of proteins named here, by UniProt entry; tags and fusion partners are left off.
UniProt Q38919: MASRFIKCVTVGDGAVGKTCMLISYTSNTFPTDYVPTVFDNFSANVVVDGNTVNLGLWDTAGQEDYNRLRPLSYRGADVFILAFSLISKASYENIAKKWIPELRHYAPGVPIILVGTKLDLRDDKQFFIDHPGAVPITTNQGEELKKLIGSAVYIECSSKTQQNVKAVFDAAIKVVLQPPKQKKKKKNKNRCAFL
UniProt Q38912: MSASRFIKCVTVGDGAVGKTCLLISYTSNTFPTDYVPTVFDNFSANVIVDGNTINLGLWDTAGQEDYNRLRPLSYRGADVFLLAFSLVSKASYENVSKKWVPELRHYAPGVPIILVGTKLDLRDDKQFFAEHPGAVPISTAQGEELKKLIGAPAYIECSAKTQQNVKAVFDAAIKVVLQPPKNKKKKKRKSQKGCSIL

Target: T1, MBP-RIC1 (Arabidopsis) (UniProt F4IVV0)
T1 sequence: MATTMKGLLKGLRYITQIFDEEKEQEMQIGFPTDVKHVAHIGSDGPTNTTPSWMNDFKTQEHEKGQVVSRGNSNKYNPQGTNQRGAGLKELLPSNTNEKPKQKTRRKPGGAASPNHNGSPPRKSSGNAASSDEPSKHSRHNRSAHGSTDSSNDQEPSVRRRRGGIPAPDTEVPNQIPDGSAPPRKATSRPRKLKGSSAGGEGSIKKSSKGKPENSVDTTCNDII
Assay: pull-down

| Substance | binding |
| --- | --- |
| GFP-ROP2 (from UniProt Q38919 1-195) | binds |
| GFP-ROP6 (from UniProt Q38912 1-198) | binds |
